Results are given in words; binding and its absence hold for the method and conditions named. For some of these results: In cells and extracts the contact can be indirect. Some binding calls cover weakened binding; strength is not graded here.

Chains of the proteins cited; added tags and fusions are not shown. Residues count along the entry.
UniProt Q04206: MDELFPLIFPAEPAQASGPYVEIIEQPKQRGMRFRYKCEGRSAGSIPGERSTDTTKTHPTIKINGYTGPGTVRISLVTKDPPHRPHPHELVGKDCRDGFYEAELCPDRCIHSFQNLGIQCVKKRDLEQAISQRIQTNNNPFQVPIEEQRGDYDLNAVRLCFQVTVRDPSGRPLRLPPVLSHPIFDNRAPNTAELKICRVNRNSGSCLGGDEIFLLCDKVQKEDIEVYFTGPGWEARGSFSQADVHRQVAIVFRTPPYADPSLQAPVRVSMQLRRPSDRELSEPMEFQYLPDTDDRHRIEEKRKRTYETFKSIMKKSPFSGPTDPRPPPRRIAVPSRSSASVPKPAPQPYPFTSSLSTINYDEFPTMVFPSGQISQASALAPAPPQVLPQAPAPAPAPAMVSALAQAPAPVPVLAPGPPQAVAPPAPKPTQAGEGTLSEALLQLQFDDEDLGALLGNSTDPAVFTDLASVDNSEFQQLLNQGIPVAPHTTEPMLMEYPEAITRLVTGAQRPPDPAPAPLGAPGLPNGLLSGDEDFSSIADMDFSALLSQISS
UniProt P08047: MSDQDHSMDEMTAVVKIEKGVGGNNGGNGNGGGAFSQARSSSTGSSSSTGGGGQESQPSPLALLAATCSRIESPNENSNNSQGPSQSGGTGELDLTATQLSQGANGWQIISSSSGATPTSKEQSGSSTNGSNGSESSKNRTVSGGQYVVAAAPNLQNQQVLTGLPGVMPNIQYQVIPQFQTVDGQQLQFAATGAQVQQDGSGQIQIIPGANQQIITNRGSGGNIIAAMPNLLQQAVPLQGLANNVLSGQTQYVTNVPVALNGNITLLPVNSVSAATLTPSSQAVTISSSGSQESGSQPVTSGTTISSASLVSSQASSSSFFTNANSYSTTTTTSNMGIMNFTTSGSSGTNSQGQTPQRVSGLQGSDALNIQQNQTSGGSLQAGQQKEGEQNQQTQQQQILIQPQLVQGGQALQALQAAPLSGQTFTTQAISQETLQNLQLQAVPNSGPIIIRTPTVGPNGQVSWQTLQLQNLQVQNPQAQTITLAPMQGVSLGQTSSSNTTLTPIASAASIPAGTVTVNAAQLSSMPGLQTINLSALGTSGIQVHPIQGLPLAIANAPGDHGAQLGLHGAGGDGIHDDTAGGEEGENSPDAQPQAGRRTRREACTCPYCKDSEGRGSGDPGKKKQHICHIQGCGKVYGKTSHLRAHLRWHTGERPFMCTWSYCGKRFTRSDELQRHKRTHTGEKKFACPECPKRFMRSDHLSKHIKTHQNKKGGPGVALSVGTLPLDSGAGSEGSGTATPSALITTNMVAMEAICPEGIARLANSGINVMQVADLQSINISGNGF
UniProt P19838, residues 1-433: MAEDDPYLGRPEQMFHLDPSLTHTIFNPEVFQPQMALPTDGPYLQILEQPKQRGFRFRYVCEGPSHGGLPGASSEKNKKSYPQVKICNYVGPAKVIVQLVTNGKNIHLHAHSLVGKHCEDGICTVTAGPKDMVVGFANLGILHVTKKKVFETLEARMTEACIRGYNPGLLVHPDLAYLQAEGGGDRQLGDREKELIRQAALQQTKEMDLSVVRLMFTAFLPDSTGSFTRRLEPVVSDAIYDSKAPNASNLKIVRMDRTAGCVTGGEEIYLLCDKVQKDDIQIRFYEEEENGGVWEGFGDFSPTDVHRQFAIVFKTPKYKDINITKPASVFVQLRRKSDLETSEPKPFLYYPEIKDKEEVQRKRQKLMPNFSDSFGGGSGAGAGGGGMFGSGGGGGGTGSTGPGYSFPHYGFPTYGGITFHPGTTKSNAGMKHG

Results on 6 molecules are retold here after PMC11483529.

Assay [1] concerns the target RelA (human (endogenous in PC-3)) (UniProt Q04206). Kind of assay: proximity ligation; Duolink PLA in PC-3 cells on glass slides with primary antibodies against Sp1 and NF-κB family members; read at 24 and 48 h; parthenolide (PTL) used as inhibitor.
The target in assay [2] is T1, RelB (human (endogenous in PC-3)) (UniProt Q01201).
T1 sequence: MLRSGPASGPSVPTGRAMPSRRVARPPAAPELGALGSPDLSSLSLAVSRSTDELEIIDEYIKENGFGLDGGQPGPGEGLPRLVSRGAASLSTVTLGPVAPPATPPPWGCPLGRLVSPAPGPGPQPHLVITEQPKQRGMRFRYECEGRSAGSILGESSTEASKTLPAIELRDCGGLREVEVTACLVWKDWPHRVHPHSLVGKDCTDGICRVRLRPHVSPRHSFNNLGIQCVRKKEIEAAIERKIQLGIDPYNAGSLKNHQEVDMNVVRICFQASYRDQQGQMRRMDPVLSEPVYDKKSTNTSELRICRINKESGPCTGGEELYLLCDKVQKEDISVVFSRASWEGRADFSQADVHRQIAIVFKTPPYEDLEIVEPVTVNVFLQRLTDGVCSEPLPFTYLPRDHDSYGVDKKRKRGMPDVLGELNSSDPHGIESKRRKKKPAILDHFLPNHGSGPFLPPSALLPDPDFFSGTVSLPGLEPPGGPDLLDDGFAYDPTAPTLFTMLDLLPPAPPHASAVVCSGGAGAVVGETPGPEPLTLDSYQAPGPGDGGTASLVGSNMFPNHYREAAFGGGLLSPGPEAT
Described as above.

For assay [3], the target named is T2, RelB (ectopically expressed in LNCaP cells) (human) (UniProt Q01201).
T2 sequence: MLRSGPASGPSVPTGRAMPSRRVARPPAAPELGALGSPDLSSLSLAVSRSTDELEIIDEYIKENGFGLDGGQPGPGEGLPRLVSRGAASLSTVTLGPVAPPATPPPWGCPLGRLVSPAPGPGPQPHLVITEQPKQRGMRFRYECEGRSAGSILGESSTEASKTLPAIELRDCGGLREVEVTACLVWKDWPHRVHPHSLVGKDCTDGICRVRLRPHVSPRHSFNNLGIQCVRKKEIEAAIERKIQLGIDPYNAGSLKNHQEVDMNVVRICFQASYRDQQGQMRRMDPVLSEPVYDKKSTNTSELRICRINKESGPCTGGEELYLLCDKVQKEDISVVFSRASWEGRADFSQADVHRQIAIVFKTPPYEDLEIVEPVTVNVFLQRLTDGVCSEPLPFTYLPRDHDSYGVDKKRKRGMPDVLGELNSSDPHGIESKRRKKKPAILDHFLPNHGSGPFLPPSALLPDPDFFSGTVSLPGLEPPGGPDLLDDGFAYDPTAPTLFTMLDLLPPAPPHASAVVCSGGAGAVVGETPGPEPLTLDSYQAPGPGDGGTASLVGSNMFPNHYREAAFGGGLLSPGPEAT
The assay can be described thus: co-IP; ChIP: chromatin from RelB-overexpressing LNCaP cells precipitated with a RelB antibody (IgG as negative control, PTL as inhibitor); proteins in the precipitate by immunoblot. For orientation: Immunoblotting shows a protein as a band on a membrane.

Assay [4] has as its target T1, RelB (human (endogenous in PC-3)). Kind of assay: proximity ligation; Duolink PLA in PC-3 cells on glass slides with primary antibodies against Sp1 and NF-κB family members; read at 24 and 48 h; parthenolide (PTL) used as inhibitor. This is another data set of the same source.
The target is the same in assay [5]. The assay can be described thus: co-IP; ChIP: chromatin from PC-3 cells precipitated with a RelB antibody; proteins in the precipitate by immunoblot.
For the next assay, the target named is T3, RelB-GAL4 (human) (UniProt Q01201).
T3 sequence: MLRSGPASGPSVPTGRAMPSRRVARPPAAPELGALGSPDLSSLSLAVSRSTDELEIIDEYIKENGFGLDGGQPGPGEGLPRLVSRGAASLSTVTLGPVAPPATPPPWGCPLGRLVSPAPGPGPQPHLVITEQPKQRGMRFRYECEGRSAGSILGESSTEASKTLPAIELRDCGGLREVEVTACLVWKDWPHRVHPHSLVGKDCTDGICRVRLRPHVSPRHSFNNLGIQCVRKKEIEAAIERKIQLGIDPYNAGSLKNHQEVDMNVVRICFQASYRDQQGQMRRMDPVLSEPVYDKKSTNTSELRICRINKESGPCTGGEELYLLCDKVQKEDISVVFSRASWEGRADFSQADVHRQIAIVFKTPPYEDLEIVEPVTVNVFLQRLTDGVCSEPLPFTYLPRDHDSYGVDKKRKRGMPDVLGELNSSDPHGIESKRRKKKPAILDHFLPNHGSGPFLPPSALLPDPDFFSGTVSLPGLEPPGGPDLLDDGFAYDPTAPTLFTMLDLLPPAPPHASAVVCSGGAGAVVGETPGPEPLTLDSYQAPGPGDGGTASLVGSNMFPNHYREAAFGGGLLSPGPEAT
Kind of assay: two-hybrid; CheckMate mammalian two-hybrid: RelB-GAL4 and NFAT1c-VP16 co-transfected with a GAL4-TATA luciferase reporter; luciferase normalised to β-gal. Background: A reporter such as luciferase makes a cellular process visible.

Consider Sp1 (from UniProt P08047 1-785), for which the binding entry in assay [1] and in assay [2] was “binds” in each case. Regarding “Sp1 (in LNCaP cells) (from UniProt P08047 1-785)”, the binding result in assay [3] was “binds”.

Turning to p50 (from UniProt P19838 1-433), the binding result in assay [1] is listed as “binds”.

B1: p52 (protein, UniProt Q00653 1-454)
chain: MESCYNPGLDGIIEYDDFKLNSSIVEPKEPAPETADGPYLVIVEQPKQRGFRFRYGCEGPSHGGLPGASSEKGRKTYPTVKICNYEGPAKIEVDLVTHSDPPRAHAHSLVGKQCSELGICAVSVGPKDMTAQFNNLGVLHVTKKNMMGTMIQKLQRQRLRSRPQGLTEAEQRELEQEAKELKKVMDLSIVRLRFSAFLRASDGSFSLPLKPVISQPIHDSKSPGASNLKISRMDKTAGSVRGGDEVYLLCDKVQKDDIEVRFYEDDENGWQAFGDFSPTDVHKQYAIVFRTPPYHKMKIERPVTVFLQLKRKRGGDVSDSKQFTYYPLVEDKEEVQRKRRKALPTFSQPFGGGSHMGGGSGGAAGGYGGAGGGGSLGFFPSSLAYSPYQSGAGPMGCYPGGGGGAQMAATVPSRDSGEEAAEPSAPSRTPQCEPQAPEMLQRAREYNARLFGLA
In the case of B1, in assay [4], the binding entry was “binds”.

B2: NFATc1 (protein, UniProt O95644 1-943)
chain: MPSTSFPVPSKFPLGPAAAVFGRGETLGPAPRAGGTMKSAEEEHYGYASSNVSPALPLPTAHSTLPAPCHNLQTSTPGIIPPADHPSGYGAALDGGPAGYFLSSGHTRPDGAPALESPRIEITSCLGLYHNNNQFFHDVEVEDVLPSSKRSPSTATLSLPSLEAYRDPSCLSPASSLSSRSCNSEASSYESNYSYPYASPQTSPWQSPCVSPKTTDPEEGFPRGLGACTLLGSPRHSPSTSPRASVTEESWLGARSSRPASPCNKRKYSLNGRQPPYSPHHSPTPSPHGSPRVSVTDDSWLGNTTQYTSSAIVAAINALTTDSSLDLGDGVPVKSRKTTLEQPPSVALKVEPVGEDLGSPPPPADFAPEDYSSFQHIRKGGFCDQYLAVPQHPYQWAKPKPLSPTSYMSPTLPALDWQLPSHSGPYELRIEVQPKSHHRAHYETEGSRGAVKASAGGHPIVQLHGYLENEPLMLQLFIGTADDRLLRPHAFYQVHRITGKTVSTTSHEAILSNTKVLEIPLLPENSMRAVIDCAGILKLRNSDIELRKGETDIGRKNTRVRLVFRVHVPQPSGRTLSLQVASNPIECSQRSAQELPLVEKQSTDSYPVVGGKKMVLSGHNFLQDSKVIFVEKAPDGHHVWEMEAKTDRDLCKPNSLVVEIPPFRNQRITSPVHVSFYVCNGKRKRSQYQRFTYLPANVPIIKTEPTDDYEPAPTCGPVSQGLSPLPRPYYSQQLAMPPDPSSCLVAGFPPCPQRSTLMPAAPGVSPKLHDLSPAAYTKGVASPGHCHLGLPQPAGEAPAVQDVPRPVATHPGSPGQPPPALLPQQVSAPPSSSCPPGLEHSLCPSSPSPPLPPATQEPTCLQPCSPACPPATGRPQHLPSTVRRDESPTAGPRLLPEVHEDGSPNLAPIPVTVKREPEELDQLYLDDVNEIIRNDLSSTSTHS
Consider B2, for which the binding entry in assay [5] is reported as “binds”.

B3: NFAT1c-VP16 (protein, UniProt O95644 1-943)
chain: MPSTSFPVPSKFPLGPAAAVFGRGETLGPAPRAGGTMKSAEEEHYGYASSNVSPALPLPTAHSTLPAPCHNLQTSTPGIIPPADHPSGYGAALDGGPAGYFLSSGHTRPDGAPALESPRIEITSCLGLYHNNNQFFHDVEVEDVLPSSKRSPSTATLSLPSLEAYRDPSCLSPASSLSSRSCNSEASSYESNYSYPYASPQTSPWQSPCVSPKTTDPEEGFPRGLGACTLLGSPRHSPSTSPRASVTEESWLGARSSRPASPCNKRKYSLNGRQPPYSPHHSPTPSPHGSPRVSVTDDSWLGNTTQYTSSAIVAAINALTTDSSLDLGDGVPVKSRKTTLEQPPSVALKVEPVGEDLGSPPPPADFAPEDYSSFQHIRKGGFCDQYLAVPQHPYQWAKPKPLSPTSYMSPTLPALDWQLPSHSGPYELRIEVQPKSHHRAHYETEGSRGAVKASAGGHPIVQLHGYLENEPLMLQLFIGTADDRLLRPHAFYQVHRITGKTVSTTSHEAILSNTKVLEIPLLPENSMRAVIDCAGILKLRNSDIELRKGETDIGRKNTRVRLVFRVHVPQPSGRTLSLQVASNPIECSQRSAQELPLVEKQSTDSYPVVGGKKMVLSGHNFLQDSKVIFVEKAPDGHHVWEMEAKTDRDLCKPNSLVVEIPPFRNQRITSPVHVSFYVCNGKRKRSQYQRFTYLPANVPIIKTEPTDDYEPAPTCGPVSQGLSPLPRPYYSQQLAMPPDPSSCLVAGFPPCPQRSTLMPAAPGVSPKLHDLSPAAYTKGVASPGHCHLGLPQPAGEAPAVQDVPRPVATHPGSPGQPPPALLPQQVSAPPSSSCPPGLEHSLCPSSPSPPLPPATQEPTCLQPCSPACPPATGRPQHLPSTVRRDESPTAGPRLLPEVHEDGSPNLAPIPVTVKREPEELDQLYLDDVNEIIRNDLSSTSTHS
With B3, the binding result in the assay with RelB-GAL4 (human) is on record as “binds”.
